Results are given in words; binding and its absence hold for the method and conditions named. Binding seen in cells or lysates may run through a third protein. Some entries that bind do so weakly or less than the wild type.
Assays:
TRRAP 2033-2283-LgBiT [1] = biological target: TRRAP 2033-2283-LgBiT (UniProt Q9Y4A5); assay: split reporter; NanoBiT luminescence complementation in live transfected Expi293F cells, 96-well plates, 48 hours after transfection; for the point mutants normalised to MYC expression
[2] = biological target: endogenous MYC (human (endogenous in HEK293T)) (UniProt P01106); assay: co-IP; HEK293T cells transfected with FLAG-tagged TRRAP regions; endogenous MYC IP'd with C-33 beads; TRRAP and FLAG blots; competition with the native complex
[3] = biological target: PYO-tagged full-length MYC (human) (UniProt P01106); assay: co-IP; HEK293T cells co-transfected with FLAG-tagged TRRAP regions and PYO-tagged full-length MYC; MYC IP'd with anti-PYO beads at 4°C for 16–20 h; western blot with anti-FLAG
[4] = biological target: PYO-tagged full-length MYC (human) (UniProt P01106); assay: co-IP; Expi293F cells co-transfected with PYO-tagged full-length MYC (or mutants) and FLAG-tagged full-length TRRAP; MYC IP'd with anti-PYO beads
TRRAP 2033-2283-LgBiT [5] = biological target: TRRAP 2033-2283-LgBiT (UniProt Q9Y4A5); assay: split reporter; NanoBiT luminescence complementation in cellular extracts of transfected Expi293F cells (F-buffer with 100 μg/mL Digitonin), protein concentration normalised

Amino acid sequences for entries named in this document (tags omitted). A change or cut given only in a name is not applied to a line headed by its entry. Chains listed by the source or under a name are the forms on record and can include a tag or linker. Residues count along the entry.
UniProt Q9Y4A5: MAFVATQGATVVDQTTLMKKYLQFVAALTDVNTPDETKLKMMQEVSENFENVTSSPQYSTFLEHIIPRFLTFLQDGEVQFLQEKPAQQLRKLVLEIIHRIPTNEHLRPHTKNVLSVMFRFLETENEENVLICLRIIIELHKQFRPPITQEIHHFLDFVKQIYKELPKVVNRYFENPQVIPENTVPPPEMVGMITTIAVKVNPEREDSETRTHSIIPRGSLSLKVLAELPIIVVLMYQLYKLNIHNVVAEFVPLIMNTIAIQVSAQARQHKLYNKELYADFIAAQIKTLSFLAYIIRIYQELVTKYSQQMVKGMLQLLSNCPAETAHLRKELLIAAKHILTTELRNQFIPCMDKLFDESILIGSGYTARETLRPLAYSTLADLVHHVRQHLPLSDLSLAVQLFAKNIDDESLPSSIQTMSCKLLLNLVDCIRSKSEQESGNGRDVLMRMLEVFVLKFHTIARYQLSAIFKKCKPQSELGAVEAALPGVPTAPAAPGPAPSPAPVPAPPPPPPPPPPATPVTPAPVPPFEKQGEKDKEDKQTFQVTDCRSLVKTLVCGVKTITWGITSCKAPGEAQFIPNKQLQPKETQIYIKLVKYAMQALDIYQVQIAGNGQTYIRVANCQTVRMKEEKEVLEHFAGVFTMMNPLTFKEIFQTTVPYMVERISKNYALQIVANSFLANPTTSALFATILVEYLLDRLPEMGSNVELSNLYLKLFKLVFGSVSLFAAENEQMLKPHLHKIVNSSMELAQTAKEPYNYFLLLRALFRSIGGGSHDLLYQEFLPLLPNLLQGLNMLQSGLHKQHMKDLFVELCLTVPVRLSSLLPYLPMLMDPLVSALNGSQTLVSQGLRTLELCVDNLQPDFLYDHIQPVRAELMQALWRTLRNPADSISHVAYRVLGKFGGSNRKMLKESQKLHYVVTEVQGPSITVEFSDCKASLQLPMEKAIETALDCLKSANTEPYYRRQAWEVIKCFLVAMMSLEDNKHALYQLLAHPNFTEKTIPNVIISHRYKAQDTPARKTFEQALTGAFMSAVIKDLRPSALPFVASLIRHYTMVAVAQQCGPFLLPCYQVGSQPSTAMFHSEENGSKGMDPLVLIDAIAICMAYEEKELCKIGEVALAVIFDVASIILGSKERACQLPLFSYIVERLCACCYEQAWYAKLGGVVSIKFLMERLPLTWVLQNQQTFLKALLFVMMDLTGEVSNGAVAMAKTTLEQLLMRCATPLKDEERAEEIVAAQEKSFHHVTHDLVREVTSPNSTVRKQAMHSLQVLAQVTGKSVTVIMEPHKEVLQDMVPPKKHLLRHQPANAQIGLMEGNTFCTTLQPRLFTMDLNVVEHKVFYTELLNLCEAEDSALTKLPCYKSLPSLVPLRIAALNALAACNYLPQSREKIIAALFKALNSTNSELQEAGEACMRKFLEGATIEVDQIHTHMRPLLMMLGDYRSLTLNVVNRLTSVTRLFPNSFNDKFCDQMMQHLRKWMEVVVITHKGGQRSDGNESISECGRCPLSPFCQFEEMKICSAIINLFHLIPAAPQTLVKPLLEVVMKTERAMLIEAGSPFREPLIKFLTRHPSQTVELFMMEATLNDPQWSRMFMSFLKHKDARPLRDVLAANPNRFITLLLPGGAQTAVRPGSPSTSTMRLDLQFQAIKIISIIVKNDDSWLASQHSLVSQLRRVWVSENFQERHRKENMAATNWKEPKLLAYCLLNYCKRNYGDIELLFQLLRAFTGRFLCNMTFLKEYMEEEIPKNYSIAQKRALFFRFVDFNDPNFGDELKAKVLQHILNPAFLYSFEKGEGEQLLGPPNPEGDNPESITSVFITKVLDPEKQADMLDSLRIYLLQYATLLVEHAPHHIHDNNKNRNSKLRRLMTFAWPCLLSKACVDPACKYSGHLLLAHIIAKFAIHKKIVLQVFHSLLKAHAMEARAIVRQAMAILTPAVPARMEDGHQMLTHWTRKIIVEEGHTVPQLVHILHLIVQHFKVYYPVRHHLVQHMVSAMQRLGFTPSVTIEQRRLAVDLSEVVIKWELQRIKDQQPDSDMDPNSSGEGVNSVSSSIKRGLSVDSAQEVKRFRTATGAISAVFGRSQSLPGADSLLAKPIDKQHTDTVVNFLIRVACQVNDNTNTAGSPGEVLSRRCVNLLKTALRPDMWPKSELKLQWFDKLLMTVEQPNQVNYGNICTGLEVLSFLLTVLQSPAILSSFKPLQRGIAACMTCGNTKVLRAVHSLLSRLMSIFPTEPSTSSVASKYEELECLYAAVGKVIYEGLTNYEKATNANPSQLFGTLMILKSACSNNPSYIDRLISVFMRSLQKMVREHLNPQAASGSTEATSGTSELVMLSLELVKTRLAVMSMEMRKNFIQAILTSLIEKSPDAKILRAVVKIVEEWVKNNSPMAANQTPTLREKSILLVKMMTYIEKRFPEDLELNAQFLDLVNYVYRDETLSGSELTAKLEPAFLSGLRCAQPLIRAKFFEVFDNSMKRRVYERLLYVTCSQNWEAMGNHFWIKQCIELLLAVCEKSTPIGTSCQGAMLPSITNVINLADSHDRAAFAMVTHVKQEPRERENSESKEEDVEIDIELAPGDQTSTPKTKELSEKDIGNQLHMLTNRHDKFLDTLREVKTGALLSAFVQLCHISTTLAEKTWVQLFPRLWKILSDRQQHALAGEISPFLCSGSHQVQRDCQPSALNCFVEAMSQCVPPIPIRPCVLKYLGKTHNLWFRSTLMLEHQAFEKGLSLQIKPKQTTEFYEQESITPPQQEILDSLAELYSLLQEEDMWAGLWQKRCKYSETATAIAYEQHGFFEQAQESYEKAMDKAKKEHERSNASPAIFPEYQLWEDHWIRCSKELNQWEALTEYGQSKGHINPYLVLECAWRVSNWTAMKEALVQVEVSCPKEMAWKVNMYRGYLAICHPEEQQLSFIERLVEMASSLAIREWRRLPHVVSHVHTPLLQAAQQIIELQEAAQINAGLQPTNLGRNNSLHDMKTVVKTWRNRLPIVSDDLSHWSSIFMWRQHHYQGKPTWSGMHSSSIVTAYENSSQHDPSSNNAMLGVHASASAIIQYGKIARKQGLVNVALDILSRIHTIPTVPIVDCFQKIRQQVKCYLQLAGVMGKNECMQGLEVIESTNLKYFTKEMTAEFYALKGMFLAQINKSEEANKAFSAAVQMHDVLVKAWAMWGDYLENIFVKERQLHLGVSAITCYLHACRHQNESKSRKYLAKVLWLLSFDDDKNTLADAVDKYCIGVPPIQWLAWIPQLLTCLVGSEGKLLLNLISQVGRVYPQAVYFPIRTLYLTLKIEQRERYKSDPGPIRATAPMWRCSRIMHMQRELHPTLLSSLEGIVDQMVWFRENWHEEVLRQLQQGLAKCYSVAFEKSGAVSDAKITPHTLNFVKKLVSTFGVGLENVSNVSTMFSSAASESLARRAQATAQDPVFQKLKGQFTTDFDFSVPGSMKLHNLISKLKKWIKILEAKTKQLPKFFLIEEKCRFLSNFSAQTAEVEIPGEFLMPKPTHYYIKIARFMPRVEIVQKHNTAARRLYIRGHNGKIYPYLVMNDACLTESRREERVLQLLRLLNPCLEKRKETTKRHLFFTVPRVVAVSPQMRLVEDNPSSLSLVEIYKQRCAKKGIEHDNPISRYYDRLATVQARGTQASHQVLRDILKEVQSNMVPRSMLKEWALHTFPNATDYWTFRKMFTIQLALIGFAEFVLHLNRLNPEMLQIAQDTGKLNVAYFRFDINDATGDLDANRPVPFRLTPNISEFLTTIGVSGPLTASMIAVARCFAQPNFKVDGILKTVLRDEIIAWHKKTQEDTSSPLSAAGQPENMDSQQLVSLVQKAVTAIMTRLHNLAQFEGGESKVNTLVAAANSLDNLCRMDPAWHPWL
TRRAP 2033-2283-LgBiT: residues 2033-2283 of Q9Y4A5
UniProt P01106: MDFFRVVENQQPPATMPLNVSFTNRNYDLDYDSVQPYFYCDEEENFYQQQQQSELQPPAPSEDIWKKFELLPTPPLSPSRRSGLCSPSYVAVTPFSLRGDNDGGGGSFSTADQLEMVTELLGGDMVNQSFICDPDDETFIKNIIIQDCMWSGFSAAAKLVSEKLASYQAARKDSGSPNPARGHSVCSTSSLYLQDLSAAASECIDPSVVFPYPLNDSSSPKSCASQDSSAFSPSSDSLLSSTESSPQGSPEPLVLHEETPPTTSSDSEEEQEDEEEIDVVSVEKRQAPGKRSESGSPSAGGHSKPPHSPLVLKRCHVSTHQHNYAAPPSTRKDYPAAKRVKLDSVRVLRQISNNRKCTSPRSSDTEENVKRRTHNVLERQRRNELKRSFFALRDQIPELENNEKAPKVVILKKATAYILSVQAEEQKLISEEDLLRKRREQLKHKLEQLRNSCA
endogenous MYC (human (endogenous in HEK293T)): residues 16-454 of P01106
SmBiT-MYC 1-190: residues 16-205 of P01106
SmBiT-MYC 1-190 W135A (P01106-1, form named): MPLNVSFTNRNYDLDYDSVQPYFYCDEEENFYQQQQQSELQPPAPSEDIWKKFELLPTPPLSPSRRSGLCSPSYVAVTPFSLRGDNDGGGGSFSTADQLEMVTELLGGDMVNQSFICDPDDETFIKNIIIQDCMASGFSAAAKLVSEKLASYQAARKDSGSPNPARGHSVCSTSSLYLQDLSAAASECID
SmBiT-MYC 1-190 T58I (P01106-1, form named): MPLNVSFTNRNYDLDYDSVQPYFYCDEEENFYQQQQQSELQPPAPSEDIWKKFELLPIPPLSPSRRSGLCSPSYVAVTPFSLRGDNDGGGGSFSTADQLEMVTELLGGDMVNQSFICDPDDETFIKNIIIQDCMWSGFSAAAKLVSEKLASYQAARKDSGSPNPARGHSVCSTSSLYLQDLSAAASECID
SmBiT-MYC 1-190 F138A (P01106-1, form named): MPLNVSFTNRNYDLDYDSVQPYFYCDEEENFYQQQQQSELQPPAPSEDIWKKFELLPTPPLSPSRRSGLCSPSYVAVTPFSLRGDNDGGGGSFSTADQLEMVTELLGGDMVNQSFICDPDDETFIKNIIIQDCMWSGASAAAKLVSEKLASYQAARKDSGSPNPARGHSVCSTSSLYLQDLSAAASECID
SmBiT-MYC 1-190 M134A (P01106-1, form named): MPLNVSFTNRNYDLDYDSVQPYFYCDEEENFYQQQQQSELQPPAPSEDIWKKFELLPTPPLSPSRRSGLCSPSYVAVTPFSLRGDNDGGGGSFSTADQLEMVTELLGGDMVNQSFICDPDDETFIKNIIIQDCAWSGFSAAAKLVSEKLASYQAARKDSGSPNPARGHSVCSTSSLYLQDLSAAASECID
SmBiT-MYC 1-190 S136A (P01106-1, form named): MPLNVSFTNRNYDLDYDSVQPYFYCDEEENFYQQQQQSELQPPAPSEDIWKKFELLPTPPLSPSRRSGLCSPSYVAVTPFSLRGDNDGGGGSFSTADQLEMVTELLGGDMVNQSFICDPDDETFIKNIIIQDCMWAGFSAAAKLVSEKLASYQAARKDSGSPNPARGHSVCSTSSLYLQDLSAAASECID

Substance	binding (TRRAP 2033-2283-LgBiT [1])	other results
SmBiT-MYC 1-190 W135A (from UniProt P01106-1 1-190) (domain or fragment)	binds	–
FLAG-tagged TRRAP 2033-2283 (from UniProt Q9Y4A5 2033-2283) (domain or fragment)	–	binding [2]: binds; binding [3]: binds
SmBiT-MYC 1-190 T58I (from UniProt P01106-1 1-190) (domain or fragment)	binds	–
FLAG-tagged full-length TRRAP (from UniProt Q9Y4A5 1-3859)	–	binding [4]: binds
SmBiT-MYC 1-190 F138A (from UniProt P01106-1 1-190) (domain or fragment)	binds	–
SmBiT-MYC 1-190 (from UniProt P01106-1 1-190) (domain or fragment)	binds	binding (TRRAP 2033-2283-LgBiT [5]): binds
SmBiT-MYC 1-190 M134A (from UniProt P01106-1 1-190) (domain or fragment)	binds	–
SmBiT-MYC 1-190 S136A (from UniProt P01106-1 1-190) (domain or fragment)	binds	–
endogenous TRRAP (from UniProt Q9Y4A5 1-3859)	–	binding [2]: binds

— publication PMC8522838
